Drawing on PMC8325274, this text covers binding for one molecule.

In the experiment the target is TRIM28 with GST tag (human), Q13263. The experiment is described as follows: pull-down; GST-TRIM28 and HA-Flag tagged telosome/shelterin subunits co-transfected into HEK293T; NETN lysate, GST beads over 4 h, three washes with NETN, western blot. The conditions noted are these: remark: other sources report otherwise. In general terms: In western blotting, separated proteins are transferred to a membrane and probed.

No constants are given. Whether binding was seen depends on the method and setting. In cells and extracts the contact can be indirect. Some entries that bind do so weakly or less than the wild type. Tags and fused reporters may be left off the sequences shown.

B1: TRF1 with HA-Flag double tags, P54274 1-439 (protein)
chain: MAEDVSSAAPSPRGCADGRDADPTEEQMAETERNDEEQFECQELLECQVQVGAPEEEEEEEEDAGLVAEAEAVAAGWMLDFLCLSLCRAFRDGRSEDFRRTRNSAEAIIHGLSSLTACQLRTIYICQFLTRIAAGKTLDAQFENDERITPLESALMIWGSIEKEHDKLHEEIQNLIKIQAIAVCMENGNFKEAEEVFERIFGDPNSHMPFKSKLLMIISQKDTFHSFFQHFSYNHMMEKIKSYVNYVLSEKSSTFLMKAAAKVVESKRTRTITSQDKPSGNDVEMETEANLDTRKSVSDKQSAVTESSEGTVSLLRSHKNLFLSKLQHGTQQQDLNKKERRVGTPQSTKKKKESRRATESRIPVSKSQPVTPEKHRARKRQAWLWEEDKNLRSGVRKYGEGNWSKILLHYKFNNRTSVMLKDRWRTMKKLKLISSDSED
Regarding B1, the binding entry was “binds”.
